Measurements as given in the supplement of paper PMC8728848.
Some of the results follow.

Key:
Assay in all cases: glycan array binding signal (z-score within array); higher = stronger binding
Conditions in all cases: glycan notation: IUPAC condensed, linker removed
[1] = molecular target: Fuc(a1-2)Gal6S(b1-3)GlcNAc
Summary of the method: (§1)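 The binding signal is a Z-score computed within each array. Data were drawn from 3228 arrays in the Consortium for Functional Glycomics database, restricted to those with a known protein sequence. Scores were averaged over arrays of the same protein sequence at different concentrations or buffers, and over linkers, and negative values can be taken as non-binding.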

[2] = molecular target: Fuc(a1-2)Gal6S(b1-3)GlcNAc6S
Summary of the method: as §1

Fuc(a1-2)Gal6S(b1-4)Glc = molecular target: Fuc(a1-2)Gal6S(b1-4)Glc
Summary of the method: as §1

[3] = molecular target: Fuc(a1-2)Gal6S(b1-4)Glc6S
Summary of the method: as §1

Fuc(a1-2)[Gal(a1-3)]Gal = molecular target: Fuc(a1-2)[Gal(a1-3)]Gal
Summary of the method: as §1

[4] = molecular target: Fuc(a1-2)[Gal(a1-3)]Gal(b1-3)GalNAc
Summary of the method: as §1

[5] = molecular target: Fuc(a1-2)[Gal(a1-3)]Gal(b1-3)GalNAc(b1-3)Gal(a1-4)Gal(b1-4)Glc
Summary of the method: as §1

[6] = molecular target: Fuc(a1-2)[Gal(a1-3)]Gal(b1-3)GlcNAc
Summary of the method: as §1

[7] = molecular target: Fuc(a1-2)[Gal(a1-3)]Gal(b1-3)GlcNAc(b1-2)Man(a1-3)[Fuc(a1-2)[Gal(a1-3)]Gal(b1-3)GlcNAc(b1-2)Man(a1-6)]Man(b1-4)GlcNAc(b1-4)GlcNAc
Summary of the method: as §1

[8] = molecular target: Fuc(a1-2)[Gal(a1-3)]Gal(b1-3)GlcNAc(b1-2)Man(a1-3)[Fuc(a1-2)[Gal(a1-3)]Gal(b1-3)GlcNAc(b1-2)Man(a1-6)]Man(b1-4)GlcNAc(b1-4)[Fuc(a1-6)]GlcNAc
Summary of the method: as §1

[9] = molecular target: Fuc(a1-2)[Gal(a1-3)]Gal(b1-3)GlcNAc(b1-3)GalNAc
Summary of the method: as §1

[10] = molecular target: Fuc(a1-2)[Gal(a1-3)]Gal(b1-3)GlcNAc(b1-6)GalNAc
Summary of the method: as §1

[11] = molecular target: Fuc(a1-2)[Gal(a1-3)]Gal(b1-4)Glc
Summary of the method: as §1

[12] = molecular target: Fuc(a1-2)[Gal(a1-3)]Gal(b1-4)GlcNAc
Summary of the method: as §1

[13] = molecular target: Fuc(a1-2)[Gal(a1-3)]Gal(b1-4)GlcNAc(b1-2)Man
Summary of the method: as §1

[14] = molecular target: Fuc(a1-2)[Gal(a1-3)]Gal(b1-4)GlcNAc(b1-2)Man(a1-3)[Fuc(a1-2)[Gal(a1-3)]Gal(b1-4)GlcNAc(b1-2)Man(a1-6)]Man(b1-4)GlcNAc(b1-4)GlcNAc
Summary of the method: as §1

[15] = molecular target: Fuc(a1-2)[Gal(a1-3)]Gal(b1-4)GlcNAc(b1-2)Man(a1-3)[Fuc(a1-2)[Gal(a1-3)]Gal(b1-4)GlcNAc(b1-2)Man(a1-6)]Man(b1-4)GlcNAc(b1-4)[Fuc(a1-6)]GlcNAc
Summary of the method: as §1

[16] = molecular target: Fuc(a1-2)[Gal(a1-3)]Gal(b1-4)GlcNAc(b1-3)GalNAc
Summary of the method: as §1

[17] = molecular target: Fuc(a1-2)[Gal(a1-3)]Gal(b1-4)GlcNAc(b1-3)[Fuc(a1-2)[Gal(a1-3)]Gal(b1-4)GlcNAc(b1-6)]GalNAc
Summary of the method: as §1

[18] = molecular target: Fuc(a1-2)[Gal(a1-3)]Gal(b1-4)GlcNAc(b1-6)GalNAc
Summary of the method: as §1

[19] = molecular target: Fuc(a1-2)[Gal(a1-3)]Gal(b1-4)[Fuc(a1-3)]Glc
Summary of the method: as §1

[20] = molecular target: Fuc(a1-2)[Gal(a1-3)]Gal(b1-4)[Fuc(a1-3)]GlcNAc
Summary of the method: as §1

[21] = molecular target: Fuc(a1-2)[Gal(a1-3)]Gal(b1-4)[Fuc(a1-3)]GlcNAc(b1-3)GalNAc
Summary of the method: as §1

[22] = molecular target: Fuc(a1-2)[Gal(a1-4)]Gal(b1-4)GlcNAc
Summary of the method: as §1

[23] = molecular target: Fuc(a1-2)[GalNAc(a1-3)]Gal
Summary of the method: as §1

[24] = molecular target: Fuc(a1-2)[GalNAc(a1-3)]Gal(b1-3)GalNAc(a1-3)[Fuc(a1-2)]Gal(b1-4)GlcNAc
Summary of the method: as §1

[25] = molecular target: Fuc(a1-2)[GalNAc(a1-3)]Gal(b1-3)GalNAc(b1-3)Gal(a1-4)Gal(b1-4)Glc
Summary of the method: as §1

[26] = molecular target: Fuc(a1-2)[GalNAc(a1-3)]Gal(b1-3)GlcNAc
Summary of the method: as §1

[27] = molecular target: Fuc(a1-2)[GalNAc(a1-3)]Gal(b1-3)GlcNAc(b1-2)Man(a1-3)[Fuc(a1-2)[GalNAc(a1-3)]Gal(b1-3)GlcNAc(b1-2)Man(a1-6)]Man(b1-4)GlcNAc(b1-4)GlcNAc
Summary of the method: as §1

[28] = molecular target: Fuc(a1-2)[GalNAc(a1-3)]Gal(b1-3)GlcNAc(b1-2)Man(a1-3)[Fuc(a1-2)[GalNAc(a1-3)]Gal(b1-3)GlcNAc(b1-2)Man(a1-6)]Man(b1-4)GlcNAc(b1-4)[Fuc(a1-6)]GlcNAc
Summary of the method: as §1

[29] = molecular target: Fuc(a1-2)[GalNAc(a1-3)]Gal(b1-3)GlcNAc(b1-3)GalNAc
Summary of the method: as §1

[30] = molecular target: Fuc(a1-2)[GalNAc(a1-3)]Gal(b1-3)GlcNAc(b1-6)GalNAc
Summary of the method: as §1

[31] = molecular target: Fuc(a1-2)[GalNAc(a1-3)]Gal(b1-4)Glc
Summary of the method: as §1

[32] = molecular target: Fuc(a1-2)[GalNAc(a1-3)]Gal(b1-4)GlcNAc
Summary of the method: as §1

[33] = molecular target: Fuc(a1-2)[GalNAc(a1-3)]Gal(b1-4)GlcNAc(b1-2)Man
Summary of the method: as §1

[34] = molecular target: Fuc(a1-2)[GalNAc(a1-3)]Gal(b1-4)GlcNAc(b1-2)Man(a1-3)[Fuc(a1-2)[GalNAc(a1-3)]Gal(b1-4)GlcNAc(b1-2)Man(a1-6)]Man(b1-4)GlcNAc(b1-4)GlcNAc
Summary of the method: as §1

[35] = molecular target: Fuc(a1-2)[GalNAc(a1-3)]Gal(b1-4)GlcNAc(b1-2)Man(a1-3)[Fuc(a1-2)[GalNAc(a1-3)]Gal(b1-4)GlcNAc(b1-2)Man(a1-6)]Man(b1-4)GlcNAc(b1-4)[Fuc(a1-6)]GlcNAc
Summary of the method: as §1

[36] = molecular target: Fuc(a1-2)[GalNAc(a1-3)]Gal(b1-4)GlcNAc(b1-3)Gal(b1-4)GlcNAc
Summary of the method: as §1

[37] = molecular target: Fuc(a1-2)[GalNAc(a1-3)]Gal(b1-4)GlcNAc(b1-3)Gal(b1-4)GlcNAc(b1-3)Gal(b1-4)GlcNAc
Summary of the method: as §1

[38] = molecular target: Fuc(a1-2)[GalNAc(a1-3)]Gal(b1-4)GlcNAc(b1-3)GalNAc
Summary of the method: as §1

[39] = molecular target: Fuc(a1-2)[GalNAc(a1-3)]Gal(b1-4)GlcNAc(b1-3)[Fuc(a1-2)[GalNAc(a1-3)]Gal(b1-4)GlcNAc(b1-6)]GalNAc
Summary of the method: as §1

[40] = molecular target: Fuc(a1-2)[GalNAc(a1-3)]Gal(b1-4)GlcNAc(b1-6)GalNAc
Summary of the method: as §1

[41] = molecular target: Fuc(a1-2)[GalNAc(a1-3)]Gal(b1-4)[Fuc(a1-3)]GlcNAc
Summary of the method: as §1

[42] = molecular target: Fuc(a1-2)[GalNAc(a1-3)]Gal(b1-4)[Fuc(a1-3)]GlcNAc(b1-3)GalNAc
Summary of the method: as §1

[43] = molecular target: Fuc(a1-2)[GalNAc(a1-4)]Gal(b1-4)GlcNAc
Summary of the method: as §1

B1: AFL6 (Aspergillus fumigatus), Q4WKJ1 (protein)
chain: MSFHLTAEDIRIEDGHRLVARLRNADGDLQDASIDLNTCLGNDNGHFQWDGVDFSHSAQDVHFAIEGGGQVPVLRAQLANQDGEFQDADVNLSERIENINGEFVFH
For B1, the “glycan array binding signal (z-score)” value [1] was -0.707, the “glycan array binding signal (z-score)” value [2] was 0.818 and the “glycan array binding signal (z-score)” value (Fuc(a1-2)Gal6S(b1-4)Glc) was -0.289. For the same binder, the “glycan array binding signal (z-score)” value [3] was -0.191, the “glycan array binding signal (z-score)” value (Fuc(a1-2)[Gal(a1-3)]Gal) was -0.21 and the “glycan array binding signal (z-score)” value [4] was 0.048. The “glycan array binding signal (z-score)” value [5] was 0.165, the “glycan array binding signal (z-score)” value [6] was -0.417 and the “glycan array binding signal (z-score)” value [7] was -0.165. The “glycan array binding signal (z-score)” value [8] was -0.086, the “glycan array binding signal (z-score)” value [9] was 0.593 and the “glycan array binding signal (z-score)” value [10] was -0.178. For the same binder, the “glycan array binding signal (z-score)” value [11] was 0.567, the “glycan array binding signal (z-score)” value [12] was -0.373 and the “glycan array binding signal (z-score)” value [13] was -0.544. For the same binder, the “glycan array binding signal (z-score)” value [14] was 0.717, the “glycan array binding signal (z-score)” value [15] was -0.281 and the “glycan array binding signal (z-score)” value [16] was -0.552. The “glycan array binding signal (z-score)” value [17] was 0.599, the “glycan array binding signal (z-score)” value [18] was 0.116 and the “glycan array binding signal (z-score)” value [19] was -0.609. For the same binder, the “glycan array binding signal (z-score)” value [20] was 0.576, the “glycan array binding signal (z-score)” value [21] was -0.802 and the “glycan array binding signal (z-score)” value [22] was -0.097. The “glycan array binding signal (z-score)” value [23] was 0.228, the “glycan array binding signal (z-score)” value [24] was -0.499 and the “glycan array binding signal (z-score)” value [25] was 0.411. For the same binder, the “glycan array binding signal (z-score)” value [26] was -0.256, the “glycan array binding signal (z-score)” value [27] was -0.01 and the “glycan array binding signal (z-score)” value [28] was -0.071. For the same binder, the “glycan array binding signal (z-score)” value [29] was 0.633, the “glycan array binding signal (z-score)” value [30] was -0.324 and the “glycan array binding signal (z-score)” value [31] was -0.426. For the same binder, the “glycan array binding signal (z-score)” value [32] was 0.222, the “glycan array binding signal (z-score)” value [33] was -0.552 and the “glycan array binding signal (z-score)” value [34] was 0.133. For the same binder, the “glycan array binding signal (z-score)” value [35] was 0.106, the “glycan array binding signal (z-score)” value [36] was -0.619 and the “glycan array binding signal (z-score)” value [37] was 0.4. The “glycan array binding signal (z-score)” value [38] was -0.656, the “glycan array binding signal (z-score)” value [39] was -0.309 and the “glycan array binding signal (z-score)” value [40] was -0.264. For the same binder, the “glycan array binding signal (z-score)” value [41] was -0.067, the “glycan array binding signal (z-score)” value [42] was 0.26 and the “glycan array binding signal (z-score)” value [43] was 0.151.
